Our source for the NP40-soluble protein abundance values is the supplement of paper PMC6411743.

By UniProt entry, the sequences of proteins in these tests, tags left out. Where a name states a change or a piece, a line headed by the entry shows the natural chain unless it says otherwise.
UniProt Q2T9J0: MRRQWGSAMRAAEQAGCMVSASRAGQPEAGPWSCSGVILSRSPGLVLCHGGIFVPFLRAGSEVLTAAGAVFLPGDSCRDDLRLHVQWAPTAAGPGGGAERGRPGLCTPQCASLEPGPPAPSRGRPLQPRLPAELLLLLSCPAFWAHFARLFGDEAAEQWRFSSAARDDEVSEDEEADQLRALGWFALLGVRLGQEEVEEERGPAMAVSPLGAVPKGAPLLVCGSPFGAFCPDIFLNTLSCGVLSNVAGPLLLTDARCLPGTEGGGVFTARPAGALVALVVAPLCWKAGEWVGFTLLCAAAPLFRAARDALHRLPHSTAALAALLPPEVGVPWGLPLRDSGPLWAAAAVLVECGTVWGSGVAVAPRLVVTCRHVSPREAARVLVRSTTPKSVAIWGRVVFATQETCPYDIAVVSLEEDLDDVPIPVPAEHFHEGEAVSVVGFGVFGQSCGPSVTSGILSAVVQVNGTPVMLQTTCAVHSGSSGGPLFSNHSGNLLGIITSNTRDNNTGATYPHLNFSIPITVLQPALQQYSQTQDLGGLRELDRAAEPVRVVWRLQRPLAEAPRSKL
UniProt Q15054: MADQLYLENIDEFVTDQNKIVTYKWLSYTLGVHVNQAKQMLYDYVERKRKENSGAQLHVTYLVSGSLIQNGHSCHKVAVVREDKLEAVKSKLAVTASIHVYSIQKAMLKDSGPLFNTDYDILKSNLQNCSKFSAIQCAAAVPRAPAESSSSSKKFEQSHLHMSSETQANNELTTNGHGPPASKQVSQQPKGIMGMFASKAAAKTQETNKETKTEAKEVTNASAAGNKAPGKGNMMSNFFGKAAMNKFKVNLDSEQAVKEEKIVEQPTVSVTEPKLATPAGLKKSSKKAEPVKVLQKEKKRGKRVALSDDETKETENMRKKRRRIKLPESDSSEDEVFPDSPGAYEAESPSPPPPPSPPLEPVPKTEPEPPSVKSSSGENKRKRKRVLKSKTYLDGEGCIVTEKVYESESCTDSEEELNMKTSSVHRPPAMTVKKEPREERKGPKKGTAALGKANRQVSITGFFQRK
UniProt Q5GLZ8: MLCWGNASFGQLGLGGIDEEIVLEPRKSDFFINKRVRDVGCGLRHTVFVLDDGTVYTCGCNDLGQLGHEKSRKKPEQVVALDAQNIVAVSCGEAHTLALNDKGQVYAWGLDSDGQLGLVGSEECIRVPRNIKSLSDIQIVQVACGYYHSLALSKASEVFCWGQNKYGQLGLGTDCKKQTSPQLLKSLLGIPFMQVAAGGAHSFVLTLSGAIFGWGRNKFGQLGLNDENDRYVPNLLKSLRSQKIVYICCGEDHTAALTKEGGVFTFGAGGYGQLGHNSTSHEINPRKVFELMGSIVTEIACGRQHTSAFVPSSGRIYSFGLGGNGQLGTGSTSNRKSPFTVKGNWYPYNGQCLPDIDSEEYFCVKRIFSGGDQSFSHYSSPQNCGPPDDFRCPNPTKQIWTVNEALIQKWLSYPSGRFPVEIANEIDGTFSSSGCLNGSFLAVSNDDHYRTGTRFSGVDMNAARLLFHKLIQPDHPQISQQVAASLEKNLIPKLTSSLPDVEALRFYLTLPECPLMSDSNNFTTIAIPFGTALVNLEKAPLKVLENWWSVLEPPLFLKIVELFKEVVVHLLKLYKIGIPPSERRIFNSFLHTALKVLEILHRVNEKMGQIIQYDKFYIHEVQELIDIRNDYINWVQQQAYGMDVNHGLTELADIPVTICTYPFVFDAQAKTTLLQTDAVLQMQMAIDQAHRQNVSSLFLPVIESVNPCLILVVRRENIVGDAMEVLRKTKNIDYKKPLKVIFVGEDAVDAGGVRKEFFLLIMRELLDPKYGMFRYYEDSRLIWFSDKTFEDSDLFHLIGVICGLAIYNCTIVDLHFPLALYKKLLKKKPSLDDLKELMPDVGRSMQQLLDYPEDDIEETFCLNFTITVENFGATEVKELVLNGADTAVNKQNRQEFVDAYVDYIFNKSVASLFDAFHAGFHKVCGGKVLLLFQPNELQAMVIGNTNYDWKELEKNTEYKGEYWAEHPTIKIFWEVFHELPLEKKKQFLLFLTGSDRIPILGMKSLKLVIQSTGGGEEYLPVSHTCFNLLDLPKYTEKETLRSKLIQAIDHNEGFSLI
UniProt Q15648, whole entry: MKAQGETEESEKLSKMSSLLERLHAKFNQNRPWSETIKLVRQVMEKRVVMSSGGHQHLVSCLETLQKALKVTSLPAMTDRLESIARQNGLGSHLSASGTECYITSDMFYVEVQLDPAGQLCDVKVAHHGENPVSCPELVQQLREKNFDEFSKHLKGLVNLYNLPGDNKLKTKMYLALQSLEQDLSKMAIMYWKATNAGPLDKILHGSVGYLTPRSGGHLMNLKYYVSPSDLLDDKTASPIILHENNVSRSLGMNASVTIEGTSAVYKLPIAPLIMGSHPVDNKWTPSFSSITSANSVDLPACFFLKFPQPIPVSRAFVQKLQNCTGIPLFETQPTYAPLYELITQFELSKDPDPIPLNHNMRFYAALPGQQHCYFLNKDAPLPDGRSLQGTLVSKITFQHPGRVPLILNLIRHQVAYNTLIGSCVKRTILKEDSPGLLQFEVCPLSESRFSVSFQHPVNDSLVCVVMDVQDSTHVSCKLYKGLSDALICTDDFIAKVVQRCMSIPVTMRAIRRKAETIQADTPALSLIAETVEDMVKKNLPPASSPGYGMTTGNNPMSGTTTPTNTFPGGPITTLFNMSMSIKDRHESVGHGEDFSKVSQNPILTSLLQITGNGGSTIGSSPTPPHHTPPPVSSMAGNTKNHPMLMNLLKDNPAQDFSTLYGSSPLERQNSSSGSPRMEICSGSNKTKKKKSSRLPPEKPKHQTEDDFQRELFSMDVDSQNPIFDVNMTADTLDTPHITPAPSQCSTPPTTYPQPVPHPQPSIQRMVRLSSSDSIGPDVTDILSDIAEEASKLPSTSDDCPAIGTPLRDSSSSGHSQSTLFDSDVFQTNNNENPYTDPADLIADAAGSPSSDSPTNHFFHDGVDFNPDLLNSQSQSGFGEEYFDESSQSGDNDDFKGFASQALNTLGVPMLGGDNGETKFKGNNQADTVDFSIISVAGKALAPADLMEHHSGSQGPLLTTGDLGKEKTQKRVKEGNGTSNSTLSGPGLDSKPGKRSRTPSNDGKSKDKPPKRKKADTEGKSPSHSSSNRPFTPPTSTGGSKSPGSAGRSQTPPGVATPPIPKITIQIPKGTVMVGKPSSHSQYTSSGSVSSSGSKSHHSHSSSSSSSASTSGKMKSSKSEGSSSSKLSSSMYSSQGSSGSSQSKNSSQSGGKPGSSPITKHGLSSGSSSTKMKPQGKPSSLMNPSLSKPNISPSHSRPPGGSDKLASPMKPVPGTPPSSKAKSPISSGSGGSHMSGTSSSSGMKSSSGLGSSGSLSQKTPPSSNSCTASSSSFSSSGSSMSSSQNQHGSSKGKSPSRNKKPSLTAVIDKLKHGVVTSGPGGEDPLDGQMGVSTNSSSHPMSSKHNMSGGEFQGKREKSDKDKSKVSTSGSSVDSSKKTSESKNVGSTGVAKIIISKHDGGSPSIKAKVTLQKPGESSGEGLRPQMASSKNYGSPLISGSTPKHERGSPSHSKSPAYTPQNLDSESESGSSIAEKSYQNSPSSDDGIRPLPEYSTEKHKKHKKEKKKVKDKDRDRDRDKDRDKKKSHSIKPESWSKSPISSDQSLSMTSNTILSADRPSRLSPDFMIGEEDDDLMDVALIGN
UniProt Q16512: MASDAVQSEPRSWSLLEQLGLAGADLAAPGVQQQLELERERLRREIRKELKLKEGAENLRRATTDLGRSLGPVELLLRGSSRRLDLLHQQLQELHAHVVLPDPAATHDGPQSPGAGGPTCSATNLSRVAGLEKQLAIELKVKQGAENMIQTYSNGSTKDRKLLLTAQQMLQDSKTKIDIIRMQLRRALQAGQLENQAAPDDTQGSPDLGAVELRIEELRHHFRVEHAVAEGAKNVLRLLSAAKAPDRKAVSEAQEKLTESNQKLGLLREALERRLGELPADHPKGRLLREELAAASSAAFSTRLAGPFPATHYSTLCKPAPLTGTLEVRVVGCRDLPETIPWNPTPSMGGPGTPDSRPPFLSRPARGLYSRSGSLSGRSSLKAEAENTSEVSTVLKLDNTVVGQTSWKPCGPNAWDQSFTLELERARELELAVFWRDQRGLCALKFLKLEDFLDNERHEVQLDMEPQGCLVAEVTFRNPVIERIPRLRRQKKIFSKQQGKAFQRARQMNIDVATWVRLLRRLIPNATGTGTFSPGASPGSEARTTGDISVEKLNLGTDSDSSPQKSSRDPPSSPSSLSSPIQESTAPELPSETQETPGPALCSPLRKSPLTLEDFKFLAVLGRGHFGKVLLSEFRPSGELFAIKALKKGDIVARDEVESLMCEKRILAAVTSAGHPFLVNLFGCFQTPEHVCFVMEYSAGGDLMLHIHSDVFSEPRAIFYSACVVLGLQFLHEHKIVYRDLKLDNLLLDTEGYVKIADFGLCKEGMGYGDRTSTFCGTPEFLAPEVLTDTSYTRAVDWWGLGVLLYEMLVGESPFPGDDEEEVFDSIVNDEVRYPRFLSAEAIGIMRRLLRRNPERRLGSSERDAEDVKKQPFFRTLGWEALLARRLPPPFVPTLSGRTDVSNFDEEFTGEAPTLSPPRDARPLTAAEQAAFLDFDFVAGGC
UniProt Q15208: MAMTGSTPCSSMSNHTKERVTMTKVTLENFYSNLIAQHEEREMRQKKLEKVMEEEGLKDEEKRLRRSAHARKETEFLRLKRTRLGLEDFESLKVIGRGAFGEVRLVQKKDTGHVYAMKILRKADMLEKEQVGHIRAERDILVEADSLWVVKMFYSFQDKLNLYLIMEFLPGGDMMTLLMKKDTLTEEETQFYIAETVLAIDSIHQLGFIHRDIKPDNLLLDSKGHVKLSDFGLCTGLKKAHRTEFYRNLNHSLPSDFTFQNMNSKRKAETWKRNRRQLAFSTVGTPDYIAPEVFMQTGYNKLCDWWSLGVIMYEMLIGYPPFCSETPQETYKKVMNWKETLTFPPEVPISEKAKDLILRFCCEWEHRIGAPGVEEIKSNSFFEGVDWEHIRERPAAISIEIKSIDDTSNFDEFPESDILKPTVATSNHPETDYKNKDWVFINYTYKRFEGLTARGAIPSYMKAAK
UniProt Q2TAL8: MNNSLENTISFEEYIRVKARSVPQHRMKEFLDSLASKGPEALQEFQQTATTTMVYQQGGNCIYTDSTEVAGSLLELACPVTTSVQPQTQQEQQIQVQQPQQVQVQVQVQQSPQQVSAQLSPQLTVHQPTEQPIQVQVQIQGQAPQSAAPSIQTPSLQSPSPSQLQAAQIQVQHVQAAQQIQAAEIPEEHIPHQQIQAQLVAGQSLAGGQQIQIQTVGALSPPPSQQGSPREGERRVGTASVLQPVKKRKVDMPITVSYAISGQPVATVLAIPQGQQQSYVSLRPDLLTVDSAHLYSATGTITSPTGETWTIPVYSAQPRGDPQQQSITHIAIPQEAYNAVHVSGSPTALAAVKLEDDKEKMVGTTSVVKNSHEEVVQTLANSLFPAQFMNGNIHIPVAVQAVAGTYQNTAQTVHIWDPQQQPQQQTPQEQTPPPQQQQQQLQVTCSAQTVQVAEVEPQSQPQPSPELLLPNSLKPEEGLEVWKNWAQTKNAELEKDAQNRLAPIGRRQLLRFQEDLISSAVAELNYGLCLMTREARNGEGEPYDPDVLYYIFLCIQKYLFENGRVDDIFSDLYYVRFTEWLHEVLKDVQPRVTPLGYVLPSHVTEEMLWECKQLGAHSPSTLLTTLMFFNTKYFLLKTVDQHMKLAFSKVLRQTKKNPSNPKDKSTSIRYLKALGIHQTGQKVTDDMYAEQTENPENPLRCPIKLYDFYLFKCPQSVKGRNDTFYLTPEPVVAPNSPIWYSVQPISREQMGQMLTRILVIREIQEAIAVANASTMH
UniProt Q15628: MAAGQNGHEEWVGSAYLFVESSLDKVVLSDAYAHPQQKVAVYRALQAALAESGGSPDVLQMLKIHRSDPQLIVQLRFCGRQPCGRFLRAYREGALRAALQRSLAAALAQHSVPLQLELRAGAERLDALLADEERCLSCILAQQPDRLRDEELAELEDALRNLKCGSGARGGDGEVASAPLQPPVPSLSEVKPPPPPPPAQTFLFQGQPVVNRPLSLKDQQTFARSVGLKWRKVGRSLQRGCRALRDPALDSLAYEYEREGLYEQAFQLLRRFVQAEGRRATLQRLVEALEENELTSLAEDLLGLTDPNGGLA
UniProt Q14847: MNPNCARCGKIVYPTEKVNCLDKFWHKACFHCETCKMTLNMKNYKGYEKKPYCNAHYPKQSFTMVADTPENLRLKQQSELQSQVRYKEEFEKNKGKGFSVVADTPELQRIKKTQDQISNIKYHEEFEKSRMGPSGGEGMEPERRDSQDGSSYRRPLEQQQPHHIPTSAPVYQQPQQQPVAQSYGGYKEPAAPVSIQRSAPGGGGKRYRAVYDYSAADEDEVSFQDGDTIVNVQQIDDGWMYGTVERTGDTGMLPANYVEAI

Compound in the assay: Nc1nc2c(ncn2[C@@H]2O[C@H](COP(=O)(O)OP(=O)(O)OP(=O)(O)O)[C@@H](O)[C@H]2O)c(=O)[nH]1 [guanosine triphosphate]
The assay can be described thus: NP40-soluble protein abundance relative to vehicle (solubility fold change) (ratio); higher = more soluble protein in presence of GTP. In short, it runs like this: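 Across three independent experiments, values are fold changes against the detergent-processed vehicle for each replicate, based on vsn-normalised intensities. The samples were Jurkat crude lysate treated with eight concentrations (0.1 to 10 mM) for 10 min at room temperature and then 3 min at 37 °C. Lysate was solubilised with 0.8% NP40 and benzonase, ultracentrifuged, and the supernatant analysed by TMT-labelled LC-MS/MS.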

± gives the standard deviation of the averaged measurements. The list shows a part of the results.

UniProt Q2T9J0 and related entries: the NP40-soluble protein abundance (concentration: 0.1mM) was 0.835 ± 0.15; the NP40-soluble protein abundance (concentration: 0.5mM) was found to be 0.843 ± 0.17; the NP40-soluble protein abundance (concentration: 1mM) was 0.867 ± 0.035; the NP40-soluble protein abundance (concentration: 2mM) came to 0.981 ± 0.26; the NP40-soluble protein abundance (concentration: 4mM) worked out at 0.914 ± 0.17; the NP40-soluble protein abundance (concentration: 6mM) was found to be 0.8195 ± 0.008. Also, the NP40-soluble protein abundance stood at 0.783 ± 0.032 (concentration: 8mM) and 0.903 ± 0.11 (concentration: 10mM).
For the target UniProt Q15054 and related entries, the NP40-soluble protein abundance reads like this: (concentration: 0.1mM) 0.962 ± 0.083; (concentration: 0.5mM) 0.953 ± 0.073; (concentration: 1mM) 0.95 ± 0.064; (concentration: 2mM) 0.915 ± 0.089; (concentration: 4mM) 0.916 ± 0.092; (concentration: 6mM) 0.929 ± 0.078. Besides, the NP40-soluble protein abundance reads like this: (concentration: 8mM) 0.954 ± 0.056; (concentration: 10mM) 0.928 ± 0.067.
Regarding UniProt Q5F1R6 and related entries, the NP40-soluble protein abundance by setting is: (concentration: 0.1mM) 0.975 ± 0.037; (concentration: 0.5mM) 0.974 ± 0.051; (concentration: 1mM) 1.03 ± 0.044; (concentration: 2mM) 1.06 ± 0.062; (concentration: 4mM) 1.08 ± 0.073; (concentration: 6mM) 1.1 ± 0.09. Besides, the NP40-soluble protein abundance turned out to be 1.21 ± 0.081 (concentration: 8mM) and 1.2 ± 0.15 (concentration: 10mM).
UniProt Q2TAY7: the NP40-soluble protein abundance by setting is: (concentration: 0.1mM) 1.06 ± 0.093; (concentration: 0.5mM) 1.06 ± 0.12; (concentration: 1mM) 0.965 ± 0.052; (concentration: 2mM) 1.04 ± 0.13; (concentration: 4mM) 1.07 ± 0.12; (concentration: 6mM) 1.08 ± 0.08. Also, the NP40-soluble protein abundance (concentration: 8mM) is 1.08 ± 0.035 and the NP40-soluble protein abundance (concentration: 10mM) came to 1.1 ± 0.12.
UniProt Q5GLZ8 and related entries: the NP40-soluble protein abundance (concentration: 0.1mM) came out at 1.07 ± 0.094; the NP40-soluble protein abundance (concentration: 0.5mM) is 1.12 ± 0.07; the NP40-soluble protein abundance (concentration: 1mM) stood at 1 ± 0.1; the NP40-soluble protein abundance (concentration: 2mM) came out at 1.01 ± 0.038; the NP40-soluble protein abundance (concentration: 4mM) worked out at 1.01 ± 0.037; the NP40-soluble protein abundance (concentration: 6mM) is 0.983 ± 0.058. Moreover, the NP40-soluble protein abundance amounted to 0.948 ± 0.074 (concentration: 8mM) and 0.911 ± 0.063 (concentration: 10mM).
Turning to PDS5A (UniProt Q29RF7), the NP40-soluble protein abundance is, setting by setting: (concentration: 0.1mM) 1 ± 0.011; (concentration: 0.5mM) 1.01 ± 0.018; (concentration: 1mM) 0.973 ± 0.013; (concentration: 2mM) 0.956 ± 0.01; (concentration: 4mM) 0.952 ± 0.014; (concentration: 6mM) 0.947 ± 0.019. Further, the NP40-soluble protein abundance is 0.951 ± 0.019 (concentration: 8mM) and 0.937 ± 0.024 (concentration: 10mM).
For UniProt Q15650 and related entries, the NP40-soluble protein abundance worked out at 1.107 ± 0.011 (concentration: 0.1mM); 1.07 ± 0.041 (concentration: 0.5mM); 1.09 ± 0.055 (concentration: 1mM); 1.07 ± 0.13 (concentration: 2mM); 1.15 ± 0.1 (concentration: 4mM); 1.13 ± 0.1 (concentration: 6mM). For the same target, the NP40-soluble protein abundance is, setting by setting: (concentration: 8mM) 1.23 ± 0.18; (concentration: 10mM) 1.27 ± 0.025.
As to MED1 (UniProt Q15648), the NP40-soluble protein abundance reads like this: (concentration: 0.1mM) 1.01 ± 0.064; (concentration: 0.5mM) 1.04 ± 0.022; (concentration: 1mM) 1.08 ± 0.031; (concentration: 2mM) 1.09 ± 0.036; (concentration: 4mM) 1.08 ± 0.045; (concentration: 6mM) 1.12 ± 0.061. Besides, the NP40-soluble protein abundance by setting is: (concentration: 8mM) 1.12 ± 0.093; (concentration: 10mM) 1.13 ± 0.097.
As for UniProt Q16512 and related entries, the NP40-soluble protein abundance (concentration: 0.1mM) was 0.963 ± 0.026; the NP40-soluble protein abundance (concentration: 0.5mM) is 0.994 ± 0.022; the NP40-soluble protein abundance (concentration: 1mM) turned out to be 0.937 ± 0.033; the NP40-soluble protein abundance (concentration: 2mM) stood at 0.93 ± 0.03; the NP40-soluble protein abundance (concentration: 4mM) is 0.906 ± 0.029; the NP40-soluble protein abundance (concentration: 6mM) is 0.914 ± 0.03. Further, the NP40-soluble protein abundance (concentration: 8mM) amounted to 0.885 ± 0.041 and the NP40-soluble protein abundance (concentration: 10mM) worked out at 0.876 ± 0.041.
Turning to UniProt Q15208, the NP40-soluble protein abundance stood at 1.06 ± 0.11 (concentration: 0.1mM); 1.06 ± 0.12 (concentration: 0.5mM); 0.946 ± 0.14 (concentration: 1mM); 0.973 ± 0.19 (concentration: 2mM); 0.935 ± 0.098 (concentration: 4mM); 0.907 ± 0.088 (concentration: 6mM). The NP40-soluble protein abundance came out at 0.903 ± 0.1 (concentration: 8mM) and 0.875 ± 0.11 (concentration: 10mM).
In the case of QRICH1 (UniProt Q2TAL8), the NP40-soluble protein abundance (concentration: 0.1mM) amounted to 0.908 ± 0.098; the NP40-soluble protein abundance (concentration: 0.5mM) turned out to be 0.912 ± 0.095; the NP40-soluble protein abundance (concentration: 1mM) worked out at 0.897 ± 0.094; the NP40-soluble protein abundance (concentration: 2mM) turned out to be 0.881 ± 0.098; the NP40-soluble protein abundance (concentration: 4mM) stood at 0.872 ± 0.13; the NP40-soluble protein abundance (concentration: 6mM) came to 0.889 ± 0.092. The NP40-soluble protein abundance by setting is: (concentration: 8mM) 0.865 ± 0.096; (concentration: 10mM) 0.885 ± 0.098.
Consider UniProt Q15329 and related entries, for which the NP40-soluble protein abundance reads like this: (concentration: 0.1mM) 0.927 ± 0.13; (concentration: 0.5mM) 0.9158 ± 0.0081; (concentration: 1mM) 0.957 ± 0.17; (concentration: 2mM) 0.92 ± 0.18; (concentration: 4mM) 0.99 ± 0.2; (concentration: 6mM) 0.944 ± 0.16. In addition, the NP40-soluble protein abundance came to 0.905 ± 0.1 (concentration: 8mM) and 0.933 ± 0.092 (concentration: 10mM).
Take UniProt Q53GS7 and related entries: the NP40-soluble protein abundance reads like this: (concentration: 0.1mM) 0.981 ± 0.017; (concentration: 0.5mM) 1.03 ± 0.16; (concentration: 1mM) 1.02 ± 0.078; (concentration: 2mM) 1.08 ± 0.027; (concentration: 4mM) 1.14 ± 0.056; (concentration: 6mM) 1.13 ± 0.016. Also, the NP40-soluble protein abundance runs as follows: (concentration: 8mM) 1.152 ± 0.011; (concentration: 10mM) 1.28 ± 0.11.
For the target TRADD (UniProt Q15628), the NP40-soluble protein abundance came out at 1.03 ± 0.029 (concentration: 0.1mM); 1.13 ± 0.1 (concentration: 0.5mM); 1.06 ± 0.081 (concentration: 1mM); 1.1 ± 0.071 (concentration: 2mM); 1.01 ± 0.069 (concentration: 4mM); 1.03 ± 0.081 (concentration: 6mM). Also, the NP40-soluble protein abundance (concentration: 8mM) was 0.956 ± 0.073 and the NP40-soluble protein abundance (concentration: 10mM) turned out to be 0.972 ± 0.09.
As for LASP1 (UniProt Q14847), the NP40-soluble protein abundance (concentration: 0.1mM) came out at 0.911 ± 0.051; the NP40-soluble protein abundance (concentration: 0.5mM) came to 0.899 ± 0.06; the NP40-soluble protein abundance (concentration: 1mM) turned out to be 0.922 ± 0.088; the NP40-soluble protein abundance (concentration: 2mM) came out at 0.849 ± 0.12; the NP40-soluble protein abundance (concentration: 4mM) amounted to 0.852 ± 0.1; the NP40-soluble protein abundance (concentration: 6mM) came out at 0.852 ± 0.1. For the same target, the NP40-soluble protein abundance (concentration: 8mM) was determined as 0.879 ± 0.076 and the NP40-soluble protein abundance (concentration: 10mM) was 0.856 ± 0.1.
